Results: publication PMC6190850, “The RNA-Recognition Motifs of TAR DNA-Binding Protein 43 May Play a Role in the Aberrant Self-Assembly of the Protein”
For at least one entry, the source does not settle the construct or the ends of the probe.

The chains behind the UniProt entries cited, without tags or fusion partners. Residues count along the entry.
UniProt Q13148, 192-269: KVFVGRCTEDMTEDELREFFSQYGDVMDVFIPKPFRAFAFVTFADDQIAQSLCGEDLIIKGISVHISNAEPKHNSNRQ

Target: TDP-43 RRM2 (UniProt Q13148)
Assay: BLI
Settings: BLI (Octet RED), 10 mM potassium phosphate pH 7.2, 150 mM KCl, 0.05% Tween, 25 C; RNA on streptavidin sensors, protein 1 nM-15 uM; recombinant protein; protein details: 6xHis-SUMO removed by TEV

## GUGUGAAUGAAU [AUG12]
  Kd: > 30 µM
